From US20220118080A1 (MAYO FOUNDATION FOR MEDICAL EDUCATION AND RESEARCH, published 2022)
No constants are given. Whether binding was seen depends on the method and setting. Some binding calls cover weakened binding; strength is not graded here.

Amino acid sequences for entries named in this document (tags omitted). A change or cut given only in a name is not applied to a line headed by its entry. Residues count along the entry.
UniProt P08362: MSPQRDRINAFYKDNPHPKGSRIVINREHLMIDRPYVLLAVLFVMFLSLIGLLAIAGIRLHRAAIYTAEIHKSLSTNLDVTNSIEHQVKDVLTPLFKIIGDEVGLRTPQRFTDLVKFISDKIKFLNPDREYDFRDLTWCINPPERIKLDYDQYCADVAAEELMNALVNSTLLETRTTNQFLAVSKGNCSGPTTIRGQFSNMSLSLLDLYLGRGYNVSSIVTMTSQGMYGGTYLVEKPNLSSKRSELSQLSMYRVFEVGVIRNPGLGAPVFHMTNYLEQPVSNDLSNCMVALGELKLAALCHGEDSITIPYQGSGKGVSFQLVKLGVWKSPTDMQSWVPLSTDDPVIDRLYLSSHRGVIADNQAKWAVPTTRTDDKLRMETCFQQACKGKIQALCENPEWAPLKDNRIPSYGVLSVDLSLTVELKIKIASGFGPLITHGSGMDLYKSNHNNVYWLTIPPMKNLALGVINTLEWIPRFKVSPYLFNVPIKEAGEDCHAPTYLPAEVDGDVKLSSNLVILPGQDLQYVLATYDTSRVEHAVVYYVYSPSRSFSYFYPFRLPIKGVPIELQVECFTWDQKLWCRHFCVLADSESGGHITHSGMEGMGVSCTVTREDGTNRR
UniProt P15529, residues 35-328: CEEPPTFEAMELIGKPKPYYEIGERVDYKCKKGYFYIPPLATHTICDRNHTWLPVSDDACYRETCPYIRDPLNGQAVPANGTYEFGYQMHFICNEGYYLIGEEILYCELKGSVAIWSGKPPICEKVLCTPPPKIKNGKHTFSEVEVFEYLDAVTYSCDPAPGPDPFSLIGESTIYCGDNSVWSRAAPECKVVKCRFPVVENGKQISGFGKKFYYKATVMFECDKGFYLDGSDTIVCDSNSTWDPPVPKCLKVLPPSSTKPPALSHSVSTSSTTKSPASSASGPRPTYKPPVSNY

Molecular target: recombinant soluble MeV-H H1 (measles virus) (UniProt P08362)
Test: ELISA, receptor-Fc titrated on plastic-bound MeV-H

How did the binding turn out when “CD46-Fc (from UniProt P15529 35-328) (Fc fusion)” was run?
Its binding is “binds”.
